Reference: PubChem BioAssay AID743121 (NCATS, 2013)

Assay: 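Genes whose silencing strengthens cell killing by camptothecin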 (primary screen)
System: MDA-MB-231 cells, a human breast cancer line
Reagents: single siRNA against human genes, 20 nM siRNA (0.8 pmol per well)
Time to read-out: 120 h (drug added 48 h after transfection, read 72 h later)
Treatment: camptothecin 20 nM (about EC30) for 72 h; vehicle 0.1% DMSO in parallel plates
Measured: 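CellTiter-Glo ATP signal, scaled to control siRNA as percent viability; sensitisation given as log2 of untreated divided by camptothecin-treated viability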
Direction: log2 vehicle/camptothecin viability: higher = stronger sensitisation to camptothecin; viability with camptothecin and viability without drug: higher = more viable cells
Hit rule: 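Active genes have an RSA gene-level p-value below 0.001, computed from the ratios of their separate siRNAs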
Here is one part, drawn at random, of about 26,000 deposited reagents. Over the whole deposit, 167 (0.63%) are marked active. 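Calls are per gene from RSA p-values that are not deposited; an individual active-marked siRNA can sensitise only weakly.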 Entries without a mark were called inactive.

target | PubChem SID | log2 vehicle/camptothecin viability | viability with camptothecin (% of control) | viability without drug (% of control)
TGS1 | SID164554242 | -0.712 | 55.7 | 34
TGS1 | SID164554244 | -0.199 | 79.5 | 69.2
TGS1 | SID164554245 | -0.335 | 99.4 | 78.8
TGS1 | SID164554248 | -0.274 | 94.8 | 78.4
SLC18A3 | SID164388650 | 0.311 | 39.6 | 49.1
SLC18A3 | SID164388651 | -0.204 | 55.7 | 48.4
SLC18A3 | SID164388653 | -0.151 | 55.8 | 50.2
SLC18A3 | SID164388654 | 0.0188 | 83.3 | 84.4
HP | SID164369895 | 0.336 | 88.5 | 112
HP | SID164369897 | -0.217 | 49.7 | 42.7
HP | SID164369899 | 0.0116 | 70 | 70.5
ARHGEF11 | SID164406635 | -0.126 | 82.1 | 75.2
ARHGEF11 | SID164406639 | 0.0958 | 98.4 | 105
ARHGEF11 | SID164406640 | 0.158 | 32.2 | 35.9
CCKBR | SID164356874 | 0.07 | 96.6 | 101
CCKBR | SID164356875 | 0.578 | 42.6 | 63.6
CCKBR | SID164356877 | -0.328 | 111 | 88.7
CCKBR | SID164356878 | -0.416 | 47.7 | 35.7
GRPR | SID164367844 | -0.22 | 69.8 | 60
GRPR | SID164367846 | -0.591 | 110 | 73.1
GRPR | SID164367850 | -0.682 | 91.2 | 56.9
GRPR | SID164367852 | -0.244 | 117 | 98.6
UBOX5 | SID164444202 | -0.0506 | 35.1 | 33.9
UBOX5 | SID164444203 | -0.0482 | 41.4 | 40
UBOX5 | SID164444204 | -0.0849 | 38.2 | 36
UBOX5 | SID164444207 | -0.000828 | 90.3 | 90.2
NALCN | SID164610864 | -0.357 | 82.3 | 64.3
NALCN | SID164610865 | 0.0522 | 92 | 95.4
NALCN | SID164610868 | -0.0647 | 74.3 | 71
NALCN | SID164610871 | 0.0172 | 75 | 75.9
IL17A | SID164371471 | -0.0175 | 79.2 | 78.3
IL17A | SID164371474 | 0.242 | 23.2 | 27.5
IL17A | SID164371476 | -0.0407 | 56.4 | 54.8
FBXO36 | SID164569491 | -0.157 | 65.2 | 58.5
FBXO36 | SID164569492 | -0.00368 | 82.6 | 82.4
FBXO36 | SID164569493 | -0.272 | 124 | 103
FBXO36 | SID164569494 | -0.264 | 76 | 63.3
PHF13 | SID164575081 | -0.0751 | 92.3 | 87.6
PHF13 | SID164575082 | -0.0547 | 41 | 39.5
PHF13 | SID164575084 | 0.643 | 11.4 | 17.8
PHF13 | SID164575085 | -0.358 | 60.6 | 47.3
TRIM61 | SID164680090 | -0.32 | 78.8 | 63.1
TRIM61 | SID164680091 | 0.0779 | 52.5 | 55.4
TRIM61 | SID164680092 | -0.105 | 67.3 | 62.6
MST1 | SID164376195 | -0.337 | 85.6 | 67.7
MST1 | SID164376196 | -0.536 | 19.5 | 13.4
MST1 | SID164376199 | -0.173 | 111 | 98.1
FMO1 | SID164365188 | 0.364 | 73.3 | 94.4
FMO1 | SID164365189 | -0.263 | 48.4 | 40.3
FMO1 | SID164365190 | 0.0434 | 58.2 | 60
FMO1 | SID164365191 | -0.164 | 101 | 89.7
LLGL1 | SID164373968 | 0.639 | 46.7 | 72.8
LLGL1 | SID164373971 | 0.295 | 56.4 | 69.2
LLGL1 | SID164373972 | 0.116 | 52.4 | 56.7
PDIA5 | SID164414525 | 0.177 | 99.9 | 113
PDIA5 | SID164414526 | 0.122 | 76.7 | 83.4
PDIA5 | SID164414527 | 0.486 | 77.7 | 109
PDIA5 | SID164414528 | -0.167 | 88.7 | 79
FZD8 | SID164396886 | -0.568 | 96 | 64.8
FZD8 | SID164396889 | 0.00304 | 35.6 | 35.7
FZD8 | SID164396890 | -0.0519 | 111 | 107
FZD8 | SID164396893 | -0.348 | 95.5 | 75
FLG | SID164365076 | -0.0819 | 95.3 | 90.1
FLG | SID164365079 | -0.0581 | 104 | 99.8
FLG | SID164365080 | -0.00459 | 62 | 61.8
FLG | SID164365082 | -0.388 | 55.6 | 42.5
MAP3K5 | SID164375293 | 0.41 | 69.5 | 92.3
MAP3K5 | SID164375294 | -0.137 | 110 | 100
MAP3K5 | SID164375295 | -0.354 | 63.2 | 49.4
MAP3K5 | SID164375296 | 0.34 | 62.3 | 78.8
